Experimental data taken from the supplement of paper PMC8732350.
Counter-ions that a name gives are not always drawn. ± gives the standard deviation of the averaged measurements. The list shows a part of the results. Single values are uncertain here, since repeats match poorly.

The molecules below were run on A549 (assay: surface PD-L1 immunofluorescence intensity relative to IFN-gamma-only control (ratio); higher = more PD-L1 expression). Conditions: 10 µM; exposure time 24 h; IFN-gamma 100 ng/mL.

| SMILES | surface PD-L1 immunofluorescence intensity |
| --- | --- |
| CCN1CC(CCN2CCOCC2)C(c2ccccc2)(c2ccccc2)C1=O (stereo unspecified) [Doxapram HCl] | 1.06 |
| CN(C)Cc1cccc(N/C(=C2\C(=O)Nc3cc(C(N)=O)ccc32)c2ccccc2)c1 | 1.08 |
| O=C(O)Cc1sc(-c2ccccc2)nc1-c1ccc(Cl)cc1 [Fentiazac] | 1.02 |
| CC(=O)OCC(=O)[C@@]12N=C(C)O[C@@H]1C[C@H]1[C@@H]3CCC4=CC(=O)C=C[C@]4(C)[C@H]3[C@@H](O)C[C@@]12C [Deflazacort] | 0.889 |
| CC(=O)OCC(=O)[C@@]12N=C(C)O[C@@H]1C[C@H]1[C@@H]3CCC4=CC(=O)C=C[C@]4(C)[C@H]3[C@@H](O)C[C@@]12C [Deflazacort (Calcort)] | 0.872 |
| C#CCN1C(C)=C(C(=O)OC)C(c2cccc([N+](=O)[O-])c2)C(C(=O)OCC)=C1C (stereo unspecified) | 0.962 |
| OCc1cc(C(O)CNCCCCCCOCCCCc2ccccc2)ccc1O (stereo unspecified) [Salmeterol] | 0.982 ± 0.026 |
| Cc1nc2n(c(=O)c1CCN1CCC(c3noc4cc(F)ccc34)CC1)CCCC2 [Risperidone] | 1.04 |
| CNCCC(Oc1ccc(C(F)(F)F)cc1)c1ccccc1 (stereo unspecified) [Fluoxetine hydrochloride] | 1.04 ± 0.043 |
| C[C@@H](CN1CC(=O)NC(=O)C1)N1CC(=O)NC(=O)C1 [Dexrazoxane HCl] | 1.01 |
| COc1ccc(Nc2ncnc3ccc(OC)cc23)cc1 [MPMQ hydrochloride] | 0.888 |
| O=S(=O)(O)CCS [Mesna] | 1.07 |
| CCn1cc(C(=O)O)c(=O)c2cnc(N3CCCC3)nc21 [Piromidic acid] | 1.08 |
| CC(C)(C)NC[C@H](O)c1ccc(O)c(CO)c1 [Levalbuterol hydrochloride] | 1.03 |
| CCCCNC(=O)NS(=O)(=O)c1ccc(C)cc1 [Tolbutamide] | 0.894 ± 0.046 |
| C[C@@H]1O[C@@H](O[C@H]2[C@H](Oc3cc(O)c(C(=O)CCc4ccc(O)cc4)c(O)c3)O[C@H](CO)[C@@H](O)[C@@H]2O)[C@H](O)[C@H](O)[C@H]1O [Naringin Dihydrochalcone (Naringin DC)] | 1.05 |
| c1ccc2c(-c3ccncc3)c[nH]c2c1 [Rockout] | 1.04 |
| CCOC(=O)OC(C)OC1=C(C(=O)Nc2ccccn2)N(C)S(=O)(=O)c2ccccc21 (stereo unspecified) [Ampiroxicam] | 1.01 |
| O=C(Nc1c(Cl)cncc1Cl)c1ccc(OC(F)F)c(OCC2CC2)c1 [Roflumilast (Daxas)] | 1.07 |
| CCCS(=O)(=O)Nc1ccc(F)c(C(=O)c2c[nH]c3ncc(-c4ccc(Cl)cc4)cc23)c1F [Vemurafenib (PLX4032)] | 1.13 ± 0.037 |
| NC(=O)c1ncn([C@@H]2O[C@H](CO)[C@@H](O)[C@H]2O)n1 [Ribavirin] | 1.06 |
| NC(=O)c1ncn([C@@H]2O[C@H](CO)[C@@H](O)[C@H]2O)n1 [Ribavirin (Copegus)] | 0.998 |
| CCC(CC)(CC(=O)Nc1cccc(/C=C/c2nc(C3CCC3)cs2)c1)C(=O)O [Cinalukast] | 0.954 |
| CCOc1ccc2c(c1)C(C)=CC(C)(C)N2 [Ethoxyquin] | 0.992 ± 0.083 |

Given tab-delimited: entries from further up
SMILES	surface PD-L1 immunofluorescence intensity
CN(C)Cc1cccc(N/C(=C2\C(=O)Nc3cc(C(N)=O)ccc32)c2ccccc2)c1	1.08
O=C(O)Cc1sc(-c2ccccc2)nc1-c1ccc(Cl)cc1 [Fentiazac]	1.02
C#CCN1C(C)=C(C(=O)OC)C(c2cccc([N+](=O)[O-])c2)C(C(=O)OCC)=C1C (stereo unspecified)	0.962
CCC(CC)(CC(=O)Nc1cccc(/C=C/c2nc(C3CCC3)cs2)c1)C(=O)O [Cinalukast]	0.954

Later entries

| SMILES | surface PD-L1 immunofluorescence intensity |
| --- | --- |
| CCOC(=O)[C@H](CCc1ccccc1)N[C@@H](C)C(=O)N1[C@H](C(=O)O)C[C@@H]2CCC[C@@H]21 [Ramipril (Altace)] | 1.08 |
| CCOC(=O)[C@H](CCc1ccccc1)N[C@@H](C)C(=O)N1[C@H](C(=O)O)C[C@@H]2CCC[C@@H]21 [Ramipril] | 1.01 |
| CNC(=O)c1ccc(-c2cnc3ncc(Cc4ccc5ncccc5c4)n3n2)cc1F | 0.877 |
| Cc1ccc(S(=O)(=O)n2c(N)nc3ccccc32)cc1 | 0.992 |
| CC(C)COCC(CN(Cc1ccccc1)c1ccccc1)N1CCCC1 (stereo unspecified) [Bepridil hydrochloride] | 0.959 |
| CC(C)COCC(CN(Cc1ccccc1)c1ccccc1)N1CCCC1 (stereo unspecified) [Bepridil] | 0.929 |
| COc1ccc(-c2nc3cc(C4=NNC(=O)CC4C)ccc3[nH]2)cc1 (stereo unspecified) [Pimobendan (Vetmedin)] | 1.12 |
| NS(=O)(=O)c1cc2c(cc1Cl)N=CNS2(=O)=O [Chlorothiazide] | 0.83 |
| CNC(=O)[C@@H](Cc1ccccc1)N(C)C(=O)[C@@H](Cc1ccc2ccccc2c1)N(C)C(=O)/C=C/CC(C)(C)N [Tabimorelin] | 0.938 |
| CNS(=O)(=O)Cc1ccc2[nH]cc(CCN(C)C)c2c1 [Sumatriptan succinate] | 1.03 ± 0.035 |
| O=c1c(O)c(-c2ccc(O)c(O)c2)oc2cc(O)ccc12 [Fisetin (Fustel)] | 1.04 |
| COc1cc2ncnc(Oc3cccc(NC(=O)Nc4cc(C(C)(C)C(F)(F)F)on4)c3)c2cc1OC | 0.952 ± 0.032 |
| CN[C@H](CC(C)C)C(=O)N[C@H]1C(=O)N[C@@H](CC(N)=O)C(=O)N[C@H]2C(=O)N[C@H]3C(=O)N[C@H](C(=O)N[C@H](C(=O)O)c4cc(O)cc(O)c4-c4cc3ccc4O)[C@H](O)c3ccc(c(Cl)c3)Oc3cc2cc(c3O[C@@H]2O[C@H](CO)[C@@H](O)[C@H](O)[C@H]2O[C@H]2C[C@](C)(N)[C@H](O)[C@H](C)O2)Oc2ccc(cc2Cl)[C@H]1O [Vancomycin hydrochloride] | 1.1 |
| CCS(=O)(=O)N(C)[C@H]1c2cc(C#N)ccc2OC(C)(C)[C@@H]1O [(-)-[3R,4S]-Chromanol 293B] | 0.989 |
| COc1cc(C(=O)NS(=O)(=O)c2ccccc2C)ccc1Cc1cn(C)c2ccc(NC(=O)OC3CCCC3)cc12 [Zafirlukast] | 1.04 |
| CCc1cncnc1N1CCN(Cc2nc3ccc(C(F)(F)F)cc3[nH]2)CC1 | 1.04 ± 0.064 |
| NS(=O)(=O)c1cc(C(=O)O)c(NCc2ccco2)cc1Cl [Furosemide] | 1.06 |
| CCOc1cc([C@@H](CS(C)(=O)=O)N2C(=O)c3cccc(NC(C)=O)c3C2=O)ccc1OC | 1 |
| CN(C)C(=O)COC(=O)Cc1ccc(OC(=O)c2ccc(NC(=N)N)cc2)cc1 [Camostat Mesilate (FOY-305)] | 0.984 |
| O=[N+]([O-])c1cccc2c(Br)[nH]nc12 [3-Bromo-7-nitroindazole] | 1.21 |
| CC(Cc1ccccc1)(NC(=O)CN)c1ccccc1 (stereo unspecified) [Remacemide hydrochloride] | 0.977 |
| N=C(N)NC(=O)c1nc(Cl)c(N)nc1N [Amiloride hydrochloride dihydrate] | 0.823 |
| N=C(N)NC(=O)c1nc(Cl)c(N)nc1N [Amiloride hydrochloride] | 1.06 |
| COc1cccc(OC)c1OCCNCC1COc2ccccc2O1 (stereo unspecified) [WB 4101 hydrochloride] | 0.996 |

| SMILES | surface PD-L1 immunofluorescence intensity |
| --- | --- |
| O=C1NCN(c2ccccc2)C12CCN(CCCC(c1ccc(F)cc1)c1ccc(F)cc1)CC2 [Fluspirilen] | 1.12 |
| O=C1NCN(c2ccccc2)C12CCN(CCCC(c1ccc(F)cc1)c1ccc(F)cc1)CC2 [Fluspirilene] | 0.94 ± 0.11 |
| CC(C)(C)C(=O)OCOC(=O)[C@@H]1N2C(=O)[C@@H](NC(=O)[C@H](N)c3ccccc3)[C@H]2SC1(C)C [Pivampicillin] | 0.979 |
| CC1(C)Oc2ccc(C#N)cc2[C@H](N2CCCC2=O)[C@H]1O [Cromakalim] | 1 |
| N[C@@H]1CCCCN(c2c(F)cc3c(=O)c(C(=O)O)cn(C4CC4)c3c2Cl)C1 [Besifloxacin HCl (Besivance)] | 0.988 |
| CC[C@H]1OC(=O)[C@H](C)[C@@H](O[C@H]2C[C@@](C)(OC)[C@@H](O)[C@H](C)O2)[C@H](C)[C@@H](O[C@@H]2O[C@H](C)C[C@H](N(C)C)[C@H]2O)[C@](C)(OC)C[C@@H](C)C(=O)[C@H](C)[C@@H](O)[C@]1(C)O [Clarithromycin] | 1.09 |
| CC[C@H]1OC(=O)[C@H](C)[C@@H](O[C@H]2C[C@@](C)(OC)[C@@H](O)[C@H](C)O2)[C@H](C)[C@@H](O[C@@H]2O[C@H](C)C[C@H](N(C)C)[C@H]2O)[C@](C)(OC)C[C@@H](C)C(=O)[C@H](C)[C@@H](O)[C@]1(C)O [Clarithromycin (Biaxin, Klacid)] | 0.963 |
| CCOc1ccccc1OCC1CNCCO1 (stereo unspecified) [Viloxazine hydrochloride] | 0.991 |
| NC(=O)Cc1cccc(C(=O)c2ccccc2)c1N [Nepafenac] | 0.99 |
| C[C@H]1COC2=C1C(=O)C(=O)c1c2ccc2c1CCCC2(C)C [Cryptotanshinone] | 0.981 |
| CN(C)CC[C@H](CSc1ccccc1)Nc1ccc(S(=O)(=O)NC(=O)c2ccc(N3CCN(Cc4ccccc4-c4ccc(Cl)cc4)CC3)cc2)cc1[N+](=O)[O-] | 1.24 |
| CCCCC1=NC2(CCCC2)C(=O)N1Cc1ccc(-c2ccccc2-c2nnn[nH]2)cc1 [Irbesartan (Avapro)] | 1.09 |
| CCCCOC(=O)c1ccc(N)cc1 [Butamben] | 0.999 |
| COc1cc(Cc2cnc(N)nc2N)cc(OC)c1OC [Trimethoprim] | 0.919 |
| COc1cc2c(cc1OC)CN(CCc1ccc(NC(=O)c3cc(OC)c(OC)cc3NC(=O)c3cnc4ccccc4c3)cc1)CC2 [Tariquidar] | 1.05 |
| CN(C(=O)c1ccc(F)cc1C(F)(F)F)C1CCN(c2nnc(-c3ccnn3C)c3ccccc23)CC1 | 1 |
| FC(F)(F)c1cc(COC2CCCNC2c2ccccc2)cc(C(F)(F)F)c1 [L-733,060 hydrochloride] | 0.934 |
| CCN(CC)CCOC(=O)C(c1ccccc1)C1CCCCC1 (stereo unspecified) [Drofenine hydrochloride] | 1.02 |
| COc1ccc([C@H]2CNC(=O)C2)cc1OC1CCCC1 [S- (+)-Rolipram] | 1.09 |
| COc1ccc([C@H]2CNC(=O)C2)cc1OC1CCCC1 [(S)-(+)-Rolipram] | 0.96 |
| C=CC(=O)c1ccc2ccccc2c1 | 0.87 |
| NS(=O)(=O)c1cccc2c1c([N+](=O)[O-])cc1nc(O)c(O)nc12 | 0.954 |
| NS(=O)(=O)c1cccc2c1c([N+](=O)[O-])cc1nc(O)c(O)nc12 [NBQX disodium salt] | 1.08 |

3 records picked at random from the list so far, as already listed:

| SMILES | surface PD-L1 immunofluorescence intensity |
| --- | --- |
| CN(C)CC[C@H](CSc1ccccc1)Nc1ccc(S(=O)(=O)NC(=O)c2ccc(N3CCN(Cc4ccccc4-c4ccc(Cl)cc4)CC3)cc2)cc1[N+](=O)[O-] | 1.24 |
| FC(F)(F)c1cc(COC2CCCNC2c2ccccc2)cc(C(F)(F)F)c1 [L-733,060 hydrochloride] | 0.934 |
| CCOc1ccccc1OCC1CNCCO1 (stereo unspecified) [Viloxazine hydrochloride] | 0.991 |
